According to the supplement of paper PMC8728848:
Some of the results follow.

What was measured:
Experiment in all cases: glycan array binding signal (z-score within array); higher = stronger binding
Details in all cases: glycan notation: IUPAC condensed, linker removed
[1] = target: Neu5Ac(a2-6)Gal(b1-4)GlcNAc(b1-3)Gal(b1-4)GlcNAc(b1-3)GalNAc
How it was run: (§1)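 The binding signal is a Z-score computed within each array and averaged over linkers. Arrays of the same protein sequence at different concentrations or buffers were also averaged together. Data originate from 3228 arrays in the Consortium for Functional Glycomics database, kept only where the protein sequence was available.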

[2] = target: Neu5Ac(a2-6)Gal(b1-4)GlcNAc(b1-3)Gal(b1-4)GlcNAc(b1-3)[Neu5Ac(a2-6)Gal(b1-4)GlcNAc(b1-3)Gal(b1-4)GlcNAc(b1-6)]GalNAc
How it was run: as §1

[3] = target: Neu5Ac(a2-6)Gal(b1-4)GlcNAc(b1-3)Gal(b1-4)GlcNAc(b1-6)[Gal(b1-3)]GalNAc
How it was run: as §1

[4] = target: Neu5Ac(a2-6)Gal(b1-4)GlcNAc(b1-3)Gal(b1-4)[Fuc(a1-3)]GlcNAc(b1-3)Gal(b1-4)[Fuc(a1-3)]GlcNAc
How it was run: as §1

[5] = target: Neu5Ac(a2-6)Gal(b1-4)GlcNAc(b1-3)GalNAc
How it was run: as §1

[6] = target: Neu5Ac(a2-6)Gal(b1-4)GlcNAc(b1-3)[Neu5Ac(a2-6)Gal(b1-4)GlcNAc(b1-6)]GalNAc
How it was run: as §1

[7] = target: Neu5Ac(a2-6)Gal(b1-4)GlcNAc(b1-6)GalNAc
How it was run: as §1

[8] = target: Neu5Ac(a2-6)Gal(b1-4)GlcNAc(b1-6)[Gal(b1-3)GlcNAc(b1-3)]Gal(b1-4)Glc
How it was run: as §1

[9] = target: Neu5Ac(a2-6)Gal(b1-4)GlcNAc(b1-6)[Gal(b1-3)]GalNAc
How it was run: as §1

[10] = target: Neu5Ac(a2-6)Gal(b1-4)GlcNAc6S
How it was run: as §1

Neu5Ac(a2-6)GalNAc = target: Neu5Ac(a2-6)GalNAc
How it was run: as §1

[11] = target: Neu5Ac(a2-6)GalNAc(b1-4)GlcNAc
How it was run: as §1

[12] = target: Neu5Ac(a2-6)GalNAc(b1-4)GlcNAc6S
How it was run: as §1

[13] = target: Neu5Ac(a2-6)GlcNAc(b1-4)GlcNAc
How it was run: as §1

[14] = target: Neu5Ac(a2-6)GlcNAc(b1-4)GlcNAc(b1-4)GlcNAc
How it was run: as §1

Neu5Ac(a2-8)Neu5Ac = target: Neu5Ac(a2-8)Neu5Ac
How it was run: as §1

[15] = target: Neu5Ac(a2-8)Neu5Ac(a2-3)Gal(b1-3)GalNAc(b1-4)[Neu5Ac(a2-3)]Gal(b1-4)Glc
How it was run: as §1

[16] = target: Neu5Ac(a2-8)Neu5Ac(a2-3)Gal(b1-3)GalNAc(b1-4)[Neu5Ac(a2-8)Neu5Ac(a2-3)]Gal(b1-4)Glc
How it was run: as §1

[17] = target: Neu5Ac(a2-8)Neu5Ac(a2-3)Gal(b1-4)Glc
How it was run: as §1

[18] = target: Neu5Ac(a2-8)Neu5Ac(a2-3)Gal(b1-4)GlcNAc
How it was run: as §1

[19] = target: Neu5Ac(a2-8)Neu5Ac(a2-3)[Gal(b1-3)GalNAc(b1-4)]Gal(b1-4)Glc
How it was run: as §1

[20] = target: Neu5Ac(a2-8)Neu5Ac(a2-3)[GalNAc(b1-4)]Gal(b1-4)Glc
How it was run: as §1

[21] = target: Neu5Ac(a2-8)Neu5Ac(a2-8)Neu5Ac
How it was run: as §1

[22] = target: Neu5Ac(a2-8)Neu5Ac(a2-8)Neu5Ac(a2-3)Gal(b1-4)Glc
How it was run: as §1

[23] = target: Neu5Ac(a2-8)Neu5Ac(a2-8)Neu5Ac(a2-3)[Gal(b1-3)GalNAc(b1-4)]Gal(b1-4)Glc
How it was run: as §1

[24] = target: Neu5Ac(a2-8)Neu5Ac(a2-8)Neu5Ac(a2-3)[GalNAc(b1-4)]Gal(b1-4)Glc
How it was run: as §1

[25] = target: Neu5Ac(a2-8)Neu5Ac(a2-8)Neu5Ac(a2-8)Neu5Ac(a2-3)[GalNAc(b1-4)]Gal(b1-4)Glc
How it was run: as §1

[26] = target: Neu5Ac(a2-8)Neu5Gc(a2-3)Gal(b1-4)GlcNAc
How it was run: as §1

[27] = target: Neu5Ac(b2-6)Gal(b1-4)GlcNAc
How it was run: as §1

Neu5Ac(b2-6)GalNAc = target: Neu5Ac(b2-6)GalNAc
How it was run: as §1

[28] = target: Neu5Ac9Ac(a2-3)Gal(b1-3)GlcNAc
How it was run: as §1

[29] = target: Neu5Ac9Ac(a2-3)Gal(b1-4)GlcNAc
How it was run: as §1

[30] = target: Neu5Ac9Ac(a2-6)Gal(b1-4)GlcNAc
How it was run: as §1

[31] = target: Neu5Gc(a2-3)Gal(b1-3)GlcNAc
How it was run: as §1

[32] = target: Neu5Gc(a2-3)Gal(b1-3)[Fuc(a1-4)]GlcNAc
How it was run: as §1

Neu5Gc(a2-3)Gal(b1-4)Glc = target: Neu5Gc(a2-3)Gal(b1-4)Glc
How it was run: as §1

[33] = target: Neu5Gc(a2-3)Gal(b1-4)GlcNAc
How it was run: as §1

[34] = target: Neu5Gc(a2-3)Gal(b1-4)GlcNAc(b1-3)Gal(b1-4)GlcNAc(b1-2)Man(a1-3)[Neu5Gc(a2-3)Gal(b1-4)GlcNAc(b1-3)Gal(b1-4)GlcNAc(b1-2)Man(a1-6)]Man(b1-4)GlcNAc(b1-4)GlcNAc
How it was run: as §1

[35] = target: Neu5Gc(a2-3)Gal(b1-4)[Fuc(a1-3)]GlcNAc
How it was run: as §1

[36] = target: Neu5Gc(a2-6)Gal(b1-4)GlcNAc
How it was run: as §1

Neu5Gc(a2-6)GalNAc = target: Neu5Gc(a2-6)GalNAc
How it was run: as §1

[37] = target: Neu5Gc(a2-8)Neu5Ac(a2-3)Gal(b1-4)GlcNAc
How it was run: as §1

[38] = target: Neu5Gc(a2-8)Neu5Gc(a2-3)Gal(b1-4)GlcNAc
How it was run: as §1

[39] = target: Neu5Gc(a2-8)Neu5Gc(a2-3)Gal(b1-4)GlcNAc(b1-3)Gal(b1-4)GlcNAc
How it was run: as §1

[40] = target: Neu5Gc(a2-8)Neu5Gc(a2-6)Gal(b1-4)GlcNAc
How it was run: as §1

[41] = target: Neu5Gc(b2-6)Gal(b1-4)GlcNAc
How it was run: as §1

B1: FliC (Clostridium difficile) (protein)
chain: MRVNTNVSALIANNQMGRNVNGQSKSMEKLSSGVRIKRAADDAAGLAISEKMRAQIKGLDQAGRNVQDGISVVQTAEGSLEETGNILQRMRTLSLQSANEINNTEEREKIADELTQLKDEIERISSSTEFNGKKLLDGTSSTIRLQVGASYGTNVSGTSNNNNEIKIQLVNTASIMASAGITTASIGSMKAGGTTGTDAAKTMVSSLDAALKSLNSSRAKLGAQQNRLESTQNNLNNTLENVTAAESRIRDTDVASEMVNLSKMNILVQASQSMLAQANQQPQGVLQLLG
glycan array binding signal (z-score) [1]: -0.188
glycan array binding signal (z-score) [2]: 0.605
glycan array binding signal (z-score) [3]: -0.605
glycan array binding signal (z-score) [4]: -0.059
glycan array binding signal (z-score) [5]: 0.533
glycan array binding signal (z-score) [6]: -0.232
glycan array binding signal (z-score) [7]: 0.009
glycan array binding signal (z-score) [8]: -0.577
glycan array binding signal (z-score) [9]: -0.618
glycan array binding signal (z-score) [10]: -0.272
glycan array binding signal (z-score) (Neu5Ac(a2-6)GalNAc): -0.549
glycan array binding signal (z-score) [11]: -0.478
glycan array binding signal (z-score) [12]: 0.879
glycan array binding signal (z-score) [13]: -0.313
glycan array binding signal (z-score) [14]: -0.86
glycan array binding signal (z-score) (Neu5Ac(a2-8)Neu5Ac): -0.234
glycan array binding signal (z-score) [15]: -0.297
glycan array binding signal (z-score) [16]: -0.178
glycan array binding signal (z-score) [17]: -0.262
glycan array binding signal (z-score) [18]: -0.401
glycan array binding signal (z-score) [19]: 1.26
glycan array binding signal (z-score) [20]: -0.626
glycan array binding signal (z-score) [21]: -0.738
glycan array binding signal (z-score) [22]: -0.687
glycan array binding signal (z-score) [23]: -0.44
glycan array binding signal (z-score) [24]: -0.651
glycan array binding signal (z-score) [25]: -0.503
glycan array binding signal (z-score) [26]: -0.706
glycan array binding signal (z-score) [27]: 0.365
glycan array binding signal (z-score) (Neu5Ac(b2-6)GalNAc): -0.14
glycan array binding signal (z-score) [28]: -0.747
glycan array binding signal (z-score) [29]: -0.003
glycan array binding signal (z-score) [30]: 0.17
glycan array binding signal (z-score) [31]: -0.551
glycan array binding signal (z-score) [32]: 0.28
glycan array binding signal (z-score) (Neu5Gc(a2-3)Gal(b1-4)Glc): 0.225
glycan array binding signal (z-score) [33]: -0.017
glycan array binding signal (z-score) [34]: 0.136
glycan array binding signal (z-score) [35]: 0.078
glycan array binding signal (z-score) [36]: 0.664
glycan array binding signal (z-score) (Neu5Gc(a2-6)GalNAc): -0.27
glycan array binding signal (z-score) [37]: -0.602
glycan array binding signal (z-score) [38]: 0.224
glycan array binding signal (z-score) [39]: -0.528
glycan array binding signal (z-score) [40]: -0.124
glycan array binding signal (z-score) [41]: -0.188
